Assay results from PMC10817174, “Integrated drug response prediction models pinpoint repurposed drugs with effectiveness against rhabdomyosarcoma” (PLOS ONE, 2024).
Where two headings read alike, the source gives them in different places.

What was measured:
[1] = system: SJCRH30 (human alveolar rhabdomyosarcoma) cells; assay: MTT cell viability assay in SJCRH30 cells; format: cell-based; conditions: 24 h, SJ-S drugs, read-out: IC50(μM) RMS
Excerpt: (§1) The RD (human embryonal rhabdomyosarcoma) and CCD-18Co (human colon fibroblast) cell lines were purchased from the Korean Cell Line Bank (KCLB). SJCRH30 (human alveolar rhabdomyosarcoma) cell line was purchased from the American Type Culture Collection (ATCC). RD and CCD-18Co cells were maintained in Dulbecco’s Modified Eagle’s Medium (DMEM; Gibco) supplemented with 10% fetal bovine serum (FBS; Gibco) and 1% penicillin/streptomycin (P/S; Gibco). SJCRH30 cells were maintained in Roswell Park Memorial Institute medium (RPMI 1640, Gibco) supplemented with 10% FBS and 1% P/S. Cells were grown in a humidified chamber containing 5% CO2 at 37°C. Cell line authentication was performed by short tandem repeat profile using PowerPlex® 18D system (Promega Corporation) and sequencing apparatus Applied Biosystems 3130xl Genetic Analyzer (Applied Biosystem) according to manufacturer’s protocol.
(§2) SJCRH30, RD, and CCD-18Co cells were seeded at 2 × 10^4 cells/well in 96-well plates. The candidate drugs were treated for 24 h. AZ628, BIX02189, fedratinib, nutlin-3a, VX-11e, SB590885, NSC207895, tubastatin A, CX-5461, navitoclax, GSK1070916 and the FDA-approved drug library were purchased from Selleckchem. […] Absorbance was measured at 570 nm using a Molecular Devices VersaMax microplate reader and SoftMax® Pro 5 software. IC50 was calculated with GraphPad Prism 7 software.

[2] = system: CCD-18Co (human colon fibroblast) cells; assay: MTT cell viability assay in normal control cells; format: cell-based
Excerpt: as §1, §2

O=C(CCCCCCC(=O)Nc1ccccc1)NO [Vorinostat]
IC50 ([1]; Homo sapiens, Rhabdomyosarcoma cell): 0.853 µM
IC50 [1]: 0.853 µM
selective anti-cancer activity against the RMS cell lines ([2]; based on the CCD-18Co control results): selective anti-cancer activity
IC50(μM) CCD-18Co ([2]; normal cell control, 24 h, MTT): No cytotoxicity
